Measured values taken from PubChem BioAssay AID328 (DTP/NCI, 2004).
The list is a part of this screen's results and no random one: it is rich in T/C values a quarter to a half above the control, in often repeated tests (any T/C) and in doses without a T/C. Other doses and runs of a compound stand elsewhere. T/C: endpoint of the treated group in % of that of the vehicle group. Some entries give survivors of the animals treated and no T/C: the source holds a T/C of zero for them, seemingly a mark for toxic or unscored doses. Some survivor counts are full or nearly so, which does not show that the dose was tolerated: the source hardly ever lists a survival T/C far under the control, and the zero likely stands for such cases as well. Survivors were counted at the toxicity check, usually on the fifth day, unless a day is given; later deaths do not show. Schedules are NCI's codes, read here as Q, the interval in days (D) or hours (H), X, the number of doses. Some entries hold several experiments; their values stand side by side, smallest first. Where survival is the endpoint, the PubChem record calls one and a half times the control and up active, and a quarter to a half above the control has no call in these data; cut-offs in other NCI protocols can differ. Some T/C values carry the count of animals alive at the toxicity check (mostly the fifth day); without a count, all were alive then. Counts like (3×) say how often a value occurs here.

Tested on: BDF1 mice, P388 leukemia ip, median survival T/C
Assay: NCI In Vivo Anticancer Drug Screen. Data for tumor model P388 Leukemia (intraperitoneal) in B6D2F1 (BDF1) mice
Conditions: T/C endpoint: median survival time, higher T/C = longer survival
Outline: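 In tumour-bearing mice, survival after compound treatment is set against the vehicle group and given as a quotient.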

[1] = dose: 10.0 mg/kg/injection, schedule: Q04DX003 (ip), vehicle: water
[2] = dose: 20.0 mg/kg/injection, schedule: Q04DX003 (ip), vehicle: water
[3] = dose: 100.0 mg/kg/injection, schedule: Q01DX009 (ip), vehicle: saline with Tween-80
[4] = dose: 25.0 mg/kg/injection, schedule: Q01DX009 (ip), vehicle: saline with Tween-80
[5] = dose: 50.0 mg/kg/injection, schedule: Q01DX009 (ip), vehicle: saline with Tween-80
[6] = dose: 75.0 mg/kg/injection, schedule: Q04DX003 (ip), vehicle: saline with Tween-80

Cc1c2ccccc2cc2cccc[n+]12
T/C (dose: 5.0 mg/kg/injection, schedule: Q01DX010 (ip), vehicle: saline): 125 (2×) and 136 % of control
T/C (dose: 10.0 mg/kg/injection, schedule: Q01DX010 (ip), vehicle: saline): 147 % of control
T/C (dose: 20.0 mg/kg/injection, schedule: Q04DX003 (ip), vehicle: saline): 130 % of control
survivor count (dose: 40.0 mg/kg/injection, schedule: Q01DX010 (ip), vehicle: saline): 0 of 6 and 4 of 6
survivor count (dose: 80.0 mg/kg/injection, schedule: Q01DX010 (ip), vehicle: saline): 0 of 6

N[C@@H](Cc1ccc(N(CCCl)CCCl)cc1)C(=O)O
survivor count (dose: 4.0 mg/kg/injection, schedule: Q01DX009 (ip), vehicle: saline): 10 of 10
T/C (dose: 5.0 mg/kg/injection, schedule: Q04DX003 (ip), vehicle: water, evaluated on day 30): 234, 236, 264 % of control
T/C (dose: 5.0 mg/kg/injection, schedule: Q04DX003 (ip), vehicle: water, evaluated on day 45): 111 % of control
T/C (dose: 6.0 mg/kg/injection, schedule: Q04DX003 (ip), vehicle: Klucel (hydroxypropylcellulose) (HPC), evaluated on day 5): 112, 206, 413 % of control
T/C (dose: 6.0 mg/kg/injection, schedule: Q04DX003 (ip), vehicle: Klucel (hydroxypropylcellulose) (HPC), evaluated on day 60): 112, 206, 413, 427 % of control
T/C (dose: 8.0 mg/kg/injection, schedule: Q01DX001 (ip), vehicle: Klucel (hydroxypropylcellulose) (HPC), evaluated on day 5): 119, 176, 208, 263, 520 % of control
T/C (dose: 8.0 mg/kg/injection, schedule: Q01DX001 (ip), vehicle: Klucel (hydroxypropylcellulose) (HPC), evaluated on day 60): 120, 176, 208, 245, 263, 520 % of control
survivor count (dose: 8.0 mg/kg/injection, schedule: Q01DX009 (ip), vehicle: saline): 6 of 10 and 9 of 10
survivor count (dose: 8.0 mg/kg/injection, schedule: Q01DX010 (ip), vehicle: saline): 6 of 6
T/C (dose: 9.0 mg/kg/injection, schedule: Q04DX003 (ip), vehicle: Klucel (hydroxypropylcellulose) (HPC), evaluated on day 5): 107, 260, 520 % of control
T/C (dose: 9.0 mg/kg/injection, schedule: Q04DX003 (ip), vehicle: Klucel (hydroxypropylcellulose) (HPC), evaluated on day 60): 107, 260, 520, 545 % of control
T/C (dose: 10.0 mg/kg/injection, schedule: Q01DX001 (ip), vehicle: saline): 295, 324, 400, 534, 536, 541, 549, 565 % of control
T/C [1]: 176 [5 of 6 alive], 232, 263 % of control
survivor count [1]: 6 of 6
T/C (dose: 12.0 mg/kg/injection, schedule: Q01DX001 (ip), vehicle: Klucel (hydroxypropylcellulose) (HPC), evaluated on day 5): 113, 243, 294, 520, 532 % of control
T/C (dose: 12.0 mg/kg/injection, schedule: Q01DX001 (ip), vehicle: Klucel (hydroxypropylcellulose) (HPC), evaluated on day 60): 113, 243, 294, 363, 520, 532 % of control
T/C (dose: 12.0 mg/kg/injection, schedule: Q04DX003 (ip), vehicle: Klucel (hydroxypropylcellulose) (HPC), evaluated on day 5): 252, 350, 521 % of control
T/C (dose: 12.0 mg/kg/injection, schedule: Q04DX003 (ip), vehicle: Klucel (hydroxypropylcellulose) (HPC), evaluated on day 60): 252, 350, 521 % of control
T/C (dose: 12.5 mg/kg/injection, schedule: Q01DX001 (ip), vehicle: saline): 293, 525, 534, 540, 548, 565 % of control
T/C (dose: 15.0 mg/kg/injection, schedule: Q01DX001 (ip), vehicle: saline): 431, 526 [9 of 10 alive], 535, 540, 549, 565 % of control
survivor count (dose: 16.0 mg/kg/injection, schedule: Q01DX009 (ip), vehicle: saline): 6 of 10
T/C (dose: 18.0 mg/kg/injection, schedule: Q01DX001 (ip), vehicle: Klucel (hydroxypropylcellulose) (HPC), evaluated on day 5): 109, 205, 254, 347, 520 % of control
T/C (dose: 18.0 mg/kg/injection, schedule: Q01DX001 (ip), vehicle: Klucel (hydroxypropylcellulose) (HPC), evaluated on day 60): 109, 205, 227, 254, 347, 520 % of control
T/C [2]: 105, 113, 116 % of control
survivor count [2]: 5 of 6
survivor count (dose: 32.0 mg/kg/injection, schedule: Q01DX009 (ip), vehicle: saline): 3 of 10
survivor count (dose: 40.0 mg/kg/injection, schedule: Q04DX003 (ip), vehicle: water): 0 of 6
survivor count (dose: 64.0 mg/kg/injection, schedule: Q01DX009 (ip), vehicle: saline): 4 of 10
survivor count (dose: 128.0 mg/kg/injection, schedule: Q01DX009 (ip), vehicle: saline): 0 of 10
survivor count (dose: 256.0 mg/kg/injection, schedule: Q01DX009 (ip), vehicle: saline): 0 of 10

COc1cc2ccc3c(c2cc1OC)CN1CCc2cc4c(cc2C1C3)OCO4 (stereo not drawn)
T/C (dose: 66.0 mg/kg/injection, schedule: Q01DX009 (ip), vehicle: saline with Tween-80): 130 % of control
T/C [3]: 140 [5 of 6 alive] and 145 % of control
T/C (dose: 150.0 mg/kg/injection, schedule: Q01DX009 (ip), vehicle: saline with Tween-80): 140 % of control

NC(=O)NN=C1CCC(c2ccccc2)CC1 (stereo not drawn)
survivor count (dose: 200.0 mg/kg/injection, schedule: Q01DX009 (ip), vehicle: saline with Tween-80): 1 of 6

O=[N+]([O-])c1cccc2c[n+](Cc3ccccc3)ccc12
T/C [4]: 128 % of control
T/C [5]: 147 % of control

O=[N+]([O-])c1ccc(N2CCN(CCO)CC2)c2c1no[n+]2[O-]
T/C (dose: 7.5 mg/kg/injection, schedule: Q01DX009 (ip), vehicle: saline with Tween-80): 142 % of control

CC1=CC2OC34COC3CC(OC(=O)C(F)(F)F)C4(C)C2(C)CC1 (stereo not drawn)
T/C (dose: 37.5 mg/kg/injection, schedule: Q04DX003 (ip), vehicle: saline with Tween-80): 130 % of control
T/C (dose: 150.0 mg/kg/injection, schedule: Q04DX003 (ip), vehicle: saline with Tween-80): 125 % of control

Clc1nc(SC2=NCCN2)c2[nH]cnc2n1
T/C (dose: 25.0 mg/kg/injection, schedule: Q04DX003 (ip), vehicle: saline with Tween-80): 141 % of control
T/C (dose: 33.0 mg/kg/injection, schedule: Q04DX003 (ip), vehicle: saline with Tween-80): 129 % of control
T/C (dose: 50.0 mg/kg/injection, schedule: Q04DX003 (ip), vehicle: saline with Tween-80): 127 and 137 % of control
T/C [6]: 125 % of control [4 of 6 alive]
survivor count [6]: 1 of 6

O=C(C[n+]1cc2ccccc2c2ccccc21)c1ccccc1
T/C (dose: 50.0 mg/kg/injection, schedule: Q01DX009 (ip), vehicle: Klucel (hydroxypropylcellulose) (HPC)): 133 % of control
survivor count (dose: 75.0 mg/kg/injection, schedule: Q01DX009 (ip), vehicle: Klucel (hydroxypropylcellulose) (HPC)): 4 of 6
survivor count (dose: 150.0 mg/kg/injection, schedule: Q01DX009 (ip), vehicle: Klucel (hydroxypropylcellulose) (HPC)): 4 of 6
survivor count (dose: 225.0 mg/kg/injection, schedule: Q01DX009 (ip), vehicle: Klucel (hydroxypropylcellulose) (HPC)): 0 of 6

CN=S(=O)(OCC#CCOS(=O)(=NC)c1ccc(C)cc1)c1ccc(C)cc1 (stereo not drawn)
T/C (dose: 12.5 mg/kg/injection, schedule: Q01DX009 (ip), vehicle: saline with Tween-80): 128 % of control [5 of 6 alive]
T/C [4]: 145 % of control
T/C [5]: 137 % of control
survivor count (dose: 200.0 mg/kg/injection, schedule: Q01DX009 (ip), vehicle: saline + alcohol): 2 of 6

CCCCCCCCCCC(=O)[O][Sn]([CH](C)C)([CH](C)C)[CH](C)C
survivor count (dose: 50.0 mg/kg/injection, schedule: Q01DX009 (ip), vehicle: saline + Tween-80 + alcohol): 0 of 6

COc1cc([N+](=O)[O-])c(Cl)cc1NS(=O)(=O)c1ccccc1
T/C [3]: 145 % of control

CCOC(=O)CCC#N
T/C (dose: 200.0 mg/kg/injection, schedule: Q01DX009 (ip), vehicle: saline): 134 % of control

CCCCCCCOc1cccc(OCCCC[N+]2(CC)CCCCC2)c1
survivor count (dose: 12.5 mg/kg/injection, schedule: Q01DX009 (ip), vehicle: saline): 1 of 6
survivor count (dose: 25.0 mg/kg/injection, schedule: Q01DX009 (ip), vehicle: saline): 0 of 6

CC1CCC2(C(=O)O)CCC3(C)C(=CCC4C5(C)CC(O)C(O)C(C)(C(=O)O)C5CCC43C)C2C1(C)O (stereo not drawn)
T/C (dose: 50.0 mg/kg/injection, schedule: Q01DX001 (ip), vehicle: saline with Tween-80): 131 % of control
